Source: paper PMC7665192, “A natriuretic peptide from Arabidopsis thaliana (AtPNP-A) can modulate catalase 2 activity” (Scientific Reports, 2020)
Results are given in words; binding and its absence hold for the method and conditions named. In cells and extracts the contact can be indirect. A yes stands for co-enrichment or nearness to the bait. Other partners may have been found.

Biological target: T1, C-terminally biotinylated synthetic peptide of AtPNP-A (pAtPNP-A) (A. thaliana) (UniProt Q9ZV52)
T1 sequence (peptide, C-terminal biotin): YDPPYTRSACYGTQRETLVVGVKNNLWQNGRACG
Assay: cross-linking + affinity purification with mass spectrometry; biotinylated pAtPNP-A (or biotin as control) added to A. thaliana (Col-0) mesophyll cell protoplasts with or without cross-linking agents; affinity-based isolation, LC-MS/MS; as described in ref. 44; only the target purified

binding: binds
B1: catalase 2 (CAT2), endogenous in A. thaliana mesophyll cell protoplasts (enzyme, UniProt P25819 1-492)
chain: MDPYKYRPASSYNSPFFTTNSGAPVWNNNSSMTVGPRGPILLEDYHLVEKLANFDRERIPERVVHARGASAKGFFEVTHDISNLTCADFLRAPGVQTPVIVRFSTVIHERGSPETLRDPRGFAVKFYTREGNFDLVGNNFPVFFIRDGMKFPDMVHALKPNPKSHIQENWRILDFFSHHPESLNMFTFLFDDIGIPQDYRHMDGSGVNTYMLINKAGKAHYVKFHWKPTCGVKSLLEEDAIRVGGTNHSHATQDLYDSIAAGNYPEWKLFIQIIDPADEDKFDFDPLDVTKTWPEDILPLQPVGRMVLNKNIDNFFAENEQLAFCPAIIVPGIHYSDDKLLQTRVFSYADTQRHRLGPNYLQLPVNAPKCAHHNNHHEGFMNFMHRDEEVNYFPSRYDQVRHAEKYPTPPAVCSGKRERCIIEKENNFKEPGERYRTFTPERQERFIQRWIDALSDPRITHEIRSIWISYWSQADKSLGQKLASRLNVRPSI
